Results are given in words; binding and its absence hold for the method and conditions named. Binding can be weak; no strength is given.
target: HLA-B*44:05 (human); test: UV peptide-exchange ELISA, yield grade

binding, binds:
SEFLLRIF [SEFLLRIF (SEQ ID NO: 208)]
WEVEVGDRTDW [… (SEQ ID NO: 219)]
ALNGDIYVW [… (SEQ ID NO: 189)]
EELHAALSEW [… (SEQ ID NO: 182)]
SEYPTKNYV [… (SEQ ID NO: 10)]
AGSPVMRKW [… (SEQ ID NO: 216)]
TETDIDREY [… (SEQ ID NO: 224)]
GETQQHIQL [… (SEQ ID NO: 176)]
AEGEPPPAL [… (SEQ ID NO: 209)]
SEDTIHTHL [… (SEQ ID NO: 222)]
REILHAQTL [… (SEQ ID NO: 203)]
SEHSLEGQKF [… (SEQ ID NO: 173)]
REMFVFKDQW [… (SEQ ID NO: 170)]
NEAGEVSKHF [… (SEQ ID NO: 190)]
SEDPEKYYL [… (SEQ ID NO: 206)]
TEQALRLSV [… (SEQ ID NO: 187)]
KELSVFKKF [… (SEQ ID NO: 200)]
MEILWKTLT [… (SEQ ID NO: 201)]
DEDLFHKL [DEDLFHKL (SEQ ID NO: 213)]
EEQDFINNRY [… (SEQ ID NO: 166)]
AELPENLKALF [… (SEQ ID NO: 199)]
EEEVFSGMKL [… (SEQ ID NO: 220)]
YEIRAEAL [YEIRAEAL (SEQ ID NO: 232)]
LEEPMPFFY [… (SEQ ID NO: 177)]
QEDKATQTL [… (SEQ ID NO: 233)]
WEVVHTVF [WEVVHTVF (SEQ ID NO: 171)]
EVEVGDRTDW [… (SEQ ID NO: 217)]
MEGAALLKIF [… (SEQ ID NO: 178)]
KEVDPTGHSF [… (SEQ ID NO: 12)]
REEEANVVL [… (SEQ ID NO: 198)]
LEYEAPKLY [… (SEQ ID NO: 228)]
RENPGMFSW [… (SEQ ID NO: 172)]
HEVAQDDHL [… (SEQ ID NO: 181)]
AEDLEKKYA [… (SEQ ID NO: 229)]
LEMLDAHRL [… (SEQ ID NO: 211)]
VEAQDRETW [… (SEQ ID NO: 13)]
DENDAGNLITF [… (SEQ ID NO: 174)]
TEEPQRLFY [… (SEQ ID NO: 234)]
LEIMTNLVTL [… (SEQ ID NO: 192)]
AEALVDGKWQEF [… (SEQ ID NO: 231)]
KEMQVTISQQL [… (SEQ ID NO: 183)]
EENIVAIGI [… (SEQ ID NO: 11)]
KEHNSSVPWSS [… (SEQ ID NO: 169)]
SVNPIIYGF [… (SEQ ID NO: 214)]
SEASVYLFRF [… (SEQ ID NO: 212)]
REAEEKEAQL [… (SEQ ID NO: 218)]
EEGPSVPKIY [… (SEQ ID NO: 168)]
EEHSSKLQTSL [… (SEQ ID NO: 180)]
EEQLLQKVM [… (SEQ ID NO: 184)]
YERPTLVEL [… (SEQ ID NO: 204)]
RELRPLFDRQW [… (SEQ ID NO: 193)]
MEVDPIGHLYIF [… (SEQ ID NO: 9)]
EEHIFSAF [EEHIFSAF (SEQ ID NO: 179)]
AEHDMKSVL [… (SEQ ID NO: 191)]
SEVEGLAFV [… (SEQ ID NO: 223)]
AEFVPKADLL [… (SEQ ID NO: 188)]
TELEVKIRDW [… (SEQ ID NO: 196)]
TEGDVLNYIF [… (SEQ ID NO: 194)]
NEILTIHF [NEILTIHF (SEQ ID NO: 197)]
MEIEGAGNFL [… (SEQ ID NO: 205)]
MEIKGTVTEF [… (SEQ ID NO: 195)]
LEGGGRGGEF [… (SEQ ID NO: 207)]
AEDNMVTSY [… (SEQ ID NO: 226)]
TEANVQALF [… (SEQ ID NO: 185)]
AEGEPPPALAW [… (SEQ ID NO: 210)]
EMPGGPVW [EMPGGPVW (SEQ ID NO: 14)]
RELPLVLLA [… (SEQ ID NO: 202)]
AETENRYCV [… (SEQ ID NO: 167)]
EEIFAHLGL [… (SEQ ID NO: 186)]
AEALVDGKW [… (SEQ ID NO: 230)]

Reference: patent US20230287071A1
